Data published in publication PMC4632068.
Results are given in words; binding and its absence hold for the method and conditions named. In cells and extracts the contact can be indirect. A yes stands for co-enrichment or nearness to the bait. Other partners may have been found. Tags and fused reporters may be left off the sequences shown.

T1: Dhh1−GFP (S. cerevisiae (endogenous in BY4741-derived yeast)) (UniProt P39517)
T1 sequence: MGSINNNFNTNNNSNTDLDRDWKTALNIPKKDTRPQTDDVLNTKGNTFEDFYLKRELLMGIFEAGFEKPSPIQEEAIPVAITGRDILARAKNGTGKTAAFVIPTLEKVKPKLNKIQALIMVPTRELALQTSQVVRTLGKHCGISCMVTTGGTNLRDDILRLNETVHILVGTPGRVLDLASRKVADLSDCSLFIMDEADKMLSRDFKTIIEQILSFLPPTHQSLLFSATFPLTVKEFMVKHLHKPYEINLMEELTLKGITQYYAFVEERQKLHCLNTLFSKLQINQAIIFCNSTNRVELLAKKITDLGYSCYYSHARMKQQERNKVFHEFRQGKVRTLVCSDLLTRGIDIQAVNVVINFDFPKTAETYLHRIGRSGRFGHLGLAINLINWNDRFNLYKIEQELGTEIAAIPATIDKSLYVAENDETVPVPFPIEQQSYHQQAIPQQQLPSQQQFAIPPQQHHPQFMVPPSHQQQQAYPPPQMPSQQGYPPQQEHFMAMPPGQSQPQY

B1: Rpm2 (protein, UniProt Q02773 123-1202)
chain: STGPTLPTNQYDPLNFSNRNFQDLSLKTSQPSVQQPQNEYSLLKDENAPVWKEDTEPCLNKSTYLQTHIDEINRCYEQKNYNKINSLYQSLKRNDIVPPLEIFTKVLDSLCKRPLDNNDLDNKMYELLTCYQDMINNRLKPPDEIYNIVLLSLFKGSILAYQFENPNGSDFYKIAIELFNTTTNDPKQKSVVKFRNFSKDVLDYNLLAMNIYPGHITLSKAQQVIKSSPAFIKDSFYFIACFSYAKLTNDKFAIKELYEDFRLSLSSGSPDQGLFDDQFEIYSVILSSFIETGEVELATNLLDDLVSKIQSSNGLASNISLLLSSFLISMSKVDPSKAYEIWFKFHNLNWIPEFSYEFYLVFMANSFQDWNLTKKIYDYIFPMERNLSPLKKQKLSDYLLHPIGVDSITTSLLDYSLQLKDNEVIMKILEESIVKNFSFDIGIYPFVFNYLREIQCGEDYLMRFIESHAEFIKKSNSINKFQFLNMIVDNFQSQSLLNKISHAKFFKNFVEDFNLENCELVSYNGLISCINNFIKIPKTIKDFPYILEIHAILVTKLFDFDTYPILQNGNNEVLLKFRDQIEHQFKMLAQNFCRLNLDPNLLAGVVSQAMKMVNLDDTANGQDLLNFFNHPGDWDKSYPLSLGSFIRNSPRGGIREFTKLSKEGYCFDYDTYKELIIKRAINKQIIDKCLEVCPDSIELKNIVNLMISKIPGRNLTQLIINNPKFSKVFVPNLRNDSMLKLIENCESLSNFIRICDFPEKFKSIAIQAENKNAIELIYERLFDGGKYADILRYNNIVPVLNLELLLKSCIRSGEFKKYESLSKKFNDKISESSKIDIQLEYLINKNDLKGAFTLFEKTPRELRTPHKTMDLYTFALFLDSFNRNITYYESPENTLQFANILSSQTSFINLLSTYNLIAHSDHLMNFNVGGMAAKVKKEILNQMLNNLYDSIRLLSPSIENDKSMKEKLREKVKNYCRFKAYLKSPELDMDELKTLVSVESFLNPFTPSMLFNNLIETIYINEHASSLVLQNGLIYSLQQKGLNKILSYLEESFITSGNDANIEKVREFRSLLRKSKPLQA
B2: Sbp1 (protein, UniProt P10080 1-294)
chain: MSAEIEEATNAVNNLSINDSEQQPRAPTHKTVIDPEDTIFIGNVAHECTEDDLKQLFVEEFGDEVSVEIPIKEHTDGHIPASKHALVKFPTKIDFDNIKENYDTKVVKDREIHIKRARTPGQMQRGGFRGRGGFRGRGGFRGGFRGGYRGGFRGRGNFRGRGGARGGFNGQKREKIPLDQMERSKDTLYINNVPFKATKEEVAEFFGTDADSISLPMRKMRDQHTGRIFTSDSANRGMAFVTFSGENVDIEAKAEEFKGKVFGDRELTVDVAVIRPENDEEEIEQETGSEEKQE
B3: Tef4 (protein, UniProt P36008 1-412)
chain: MSQGTLYINRSPRNYASEALISYFKLDVKIVDLEQSSEFASLFPLKQAPAFLGPKGLKLTEALAIQFYLANQVADEKERARLLGSDVIEKSQILRWASLANSDVMSNIARPFLSFKGLIPYNKKDVDACFVKIDNLAAVFDARLRDYTFVATENISLGDLHAAGSWAFGLATILGPEWRAKHPHLMRWFNTVAASPIVKTPFAEVKLAEKALTYTPPKKQKAEKPKAEKSKAEKKKDEAKPADDAAPAKKPKHPLEALGKSTFVLDDWKRKYSNDDTRPVALPWFWEHYNPEEYSIWKVGYKYNDELTLTFMSNNLVGGFFNRLSASTKYMFGCLVVYGENNNNGIVGAVMVRGQDFAPAFDVAPDWESYEYTKLDPTKEEDKEFVNNMWAWDKPVVVNGEDKEIVDGKVLK
B4: Yef3 (protein, UniProt P16521 1-1044)
chain: MSDSQQSIKVLEELFQKLSVATADNRHEIASEVASFLNGNIIEHDVPEHFFGELAKGIKDKKTAANAMQAVAHIANQSNLSPSVEPYIVQLVPAICTNAGNKDKEIQSVASETLISIVNAVNPVAIKALLPHLTNAIVETNKWQEKIAILAAISAMVDAAKDQVALRMPELIPVLSETMWDTKKEVKAAATAAMTKATETVDNKDIERFIPSLIQCIADPTEVPETVHLLGATTFVAEVTPATLSIMVPLLSRGLNERETGIKRKSAVIIDNMCKLVEDPQVIAPFLGKLLPGLKSNFATIADPEAREVTLRALKTLRRVGNVGEDDAIPEVSHAGDVSTTLQVVNELLKDETVAPRFKIVVEYIAAIGADLIDERIIDQQAWFTHITPYMTIFLHEKKAKDILDEFRKRAVDNIPVGPNFDDEEDEGEDLCNCEFSLAYGAKILLNKTQLRLKRARRYGICGPNGCGKSTLMRAIANGQVDGFPTQEECRTVYVEHDIDGTHSDTSVLDFVFESGVGTKEAIKDKLIEFGFTDEMIAMPISALSGGWKMKLALARAVLRNADILLLDEPTNHLDTVNVAWLVNYLNTCGITSITISHDSVFLDNVCEYIINYEGLKLRKYKGNFTEFVKKCPAAKAYEELSNTDLEFKFPEPGYLEGVKTKQKAIVKVTNMEFQYPGTSKPQITDINFQCSLSSRIAVIGPNGAGKSTLINVLTGELLPTSGEVYTHENCRIAYIKQHAFAHIESHLDKTPSEYIQWRFQTGEDRETMDRANRQINENDAEAMNKIFKIEGTPRRIAGIHSRRKFKNTYEYECSFLLGENIGMKSERWVPMMSVDNAWIPRGELVESHSKMVAEVDMKEALASGQFRPLTRKEIEEHCSMLGLDPEIVSHSRIRGLSGGQKVKLVLAAGTWQRPHLIVLDEPTNYLDRDSLGALSKALKEFEGGVIIITHSAEFTKNLTEEVWAVKDGRMTPSGHNWVSGQGAGPRIEKKEDEEDKFDAMGNKIAGGKKKKKLSSAELRKKKKERMKKKKELGDAYVSSDEEF
B5: Sis1 (protein, UniProt P25294 1-352)
chain: MVKETKLYDLLGVSPSANEQELKKGYRKAALKYHPDKPTGDTEKFKEISEAFEILNDPQKREIYDQYGLEAARSGGPSFGPGGPGGAGGAGGFPGGAGGFSGGHAFSNEDAFNIFSQFFGGSSPFGGADDSGFSFSSYPSGGGAGMGGMPGGMGGMHGGMGGMPGGFRSASSSPTYPEEETVQVNLPVSLEDLFVGKKKSFKIGRKGPHGASEKTQIDIQLKPGWKAGTKITYKNQGDYNPQTGRRKTLQFVIQEKSHPNFKRDGDDLIYTLPLSFKESLLGFSKTIQTIDGRTLPLSRVQPVQPSQTSTYPGQGMPTPKNPSQRGNLIVKYKVDYPISLNDAQKRAIDENF
B6: Def1 (protein, UniProt P35732 1-738)
chain: MSTQFRKSNHNSHSSKKLNPALKSKIDTLTELFPDWTSDDLIDIVQEYDDLETIIDKITSGAVTRWDEVKKPAKKEKYEKKEQQHSYVPQQHLPNPEDDITYKSSNNSNSFTSTKHNSSNNYTQARNKKKVQTPRAHTTGKHVNLDKGKHVPSKPVSNTTSWAAAVSVDTKHDVPQDSNDNNNEELEAQGQQAQEKNQEKEQEEQQQQEGHNNKEEHKQIEQPSLSSKKTTSRTSASQPKKMSWAAIATPKPKAVKKTESPLENVAELKKEISDIKKDDQKSEASEEKVNEQETSAQEQEEETAEPSEENEDRVPEVDGEEVQEEAEKKEQVKEEEQTAEELEQEQDNVAAPEEEVTVVEEKVEISAVISEPPEDQANTVPQPQQQSQQPQQPQQPQQPQQPQQPQQQQQPQQPQQPQQQLQQQQQQQQQPVQAQAQAQEEQLSQNYYTQQQQQQYAQQQHQLQQQYLSQQQQYAQQQQQHPQPQSQQPQSQQSPQSQKQGNNVAAQQYYMYQNQFPGYSYPGMFDSQGYAYGQQYQQLAQNNAQTSGNANQYNFQQGYGQAGANTAAANLTSAAAAAAASPATAHAQPQQQQPYGGSFMPYYAHFYQQSFPYGQPQYGVAGQYPYQLPKNNYNYYQTQNGQEQQSPNQGVAQHSEDSQQKQSQQQQQQQPQGQPQPEVQMQNGQPVNPQQQMQFQQYYQFQQQQQQAAAAAAAAAQQGVPYGYNGYDYNSKNSRGFY
B7: Mkt1 (protein, UniProt P40850 1-830)
chain: MAIKSLESFLFERGLVGSYAIEALNNCTLDIDVNHYVSRLLTNKREQYLDAIGGFPTSLKMYLESDLKIFKDFNITPIFVFNGGLTYNQLEASGHFTAASASASISSTTTSSSGTNATTRSNTESVLLQRSRGWTQWNNLISSNQNSYIDQPIQPQEPFRHNTTIDSKAYQNDLIAYFIEHGYMYQVAPYSSWFQLAYLLNSAYIDAIYGPTDCLMLDCVDRFILGMEFPNKEFRFIDRSRVMKDLGCTHEEFIDIAMAVGNDLQPTTLPPLQIYPVPQLFDIALEMVLNTGTNFYAYQLSTTLQNDSKENIQNYQRGISALRYMPVLKDTGKVELFVQEIVVSEEDSEKNNKDGKKSNLSSPSSASSSASPATTVTKNASEKLTYEKSSTKEVRKPRDIPNDVHDFIGQMLPHEYYFYRSIGLVTGKLFDAIVTGVYPEEPPLGGGSSTSYKKLVSKSVEIFKNKEINLLTQPINRYYQIKQIKQVKWYAANEPTTLTNRMSPSMFETINHLIVKTETSDEKEFSISEFITTINGSSNMAKDFISEKVIFPNSVPIESKLNSPFNLLSTNFLRLLVLLEFFTFDFKEKLLEPTRWGEVFLKLNELNIDSKYHESVIIFLVFLKCDVLKLDEEVQPPAPSALSQATLRSYPEESLYVLLITRVLTLFQVDQKPSNYHGPIDKKTLIFRDHLSFIKENLNELFEAVLISSLTSGEFNRLSLDNFGWARKIVRYLPFKLDSPNTIMAMMWEFFLQKYLHNGNAKNDALSLVATEFNTYKSTPNLDEQFVESHRFLLEISKVMQELNAAKLIDENVFKLFTKAVEFTTTALSS
B8: Stm1 (protein, UniProt P39015 1-273)
chain: MSNPFDLLGNDVEDADVVVLPPKEIVKSNTSSKKADVPPPSADPSKARKNRPRPSGNEGAIRDKTAGRRNNRSKDVTDSATTKKSNTRRATDRHSRTGKTDTKKKVNQGWGDDKKELSAEKEAQADAAAEIAEDAAEAEDAGKPKTAQLSLQDYLNQQANNQFNKVPEAKKVELDAERIETAEKEAYVPATKVKNVKSKQLKTKEYLEFDATFVESNTRKNFGDRNNNSRNNFNNRRGGRGARKGNNTANATNSANTVQKNRNIDVSNLPSLA

These binders were tested against T1, Dhh1−GFP (S. cerevisiae (endogenous in BY4741-derived yeast)) (assay: affinity purification with mass spectrometry; Dhh1−GFP captured by anti-GFP IgG cross-linked to Protein-G Dynabeads from cleared lysate of cryo-ground yeast; RB buffer (30 mM K-Hepes pH 7.4, 150 mM KCl, 2 mM MgCl2, 0.2% NP-40, 0.1% Tween-20, 1 mM DTT, RNase inhibitor), 30 min at 4°; five purifications (two +glucose YPD, three 30 min −glucose YEP); hits filtered by SAINT against CRAPome controls).

Row | Binder | binding
1 | B1 | binds
2 | B2 | binds
3 | B3 | binds
4 | B4 | binds
5 | B5 | binds
6 | B6 | binds
7 | B7 | binds
8 | B8 | binds
